According to article PMC8206314:
No constants are given. Whether binding was seen depends on the method and setting. Binding seen in cells or lysates may run through a third protein. Some results given as binding are weak or reduced against the parent protein; the word gives no strength.

Sequences of proteins named here, by UniProt entry; tags and fusion partners are left off.
UniProt P10415: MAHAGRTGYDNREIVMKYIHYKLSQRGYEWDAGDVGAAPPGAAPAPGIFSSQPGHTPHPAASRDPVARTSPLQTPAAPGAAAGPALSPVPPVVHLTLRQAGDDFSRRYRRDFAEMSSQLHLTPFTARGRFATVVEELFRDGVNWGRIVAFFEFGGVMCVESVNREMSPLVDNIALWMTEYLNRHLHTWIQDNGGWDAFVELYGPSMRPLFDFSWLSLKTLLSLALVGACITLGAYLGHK

Key:
[1] = biological target: HA-BECN1 WT (human) (UniProt Q14457); test: co-IP; HEK293T cells expressing HA-BECN1 WT, Y333F or Y333E; endogenous partners detected by western blot; NP40 cell lysis buffer
[2] = biological target: HA-BECN1 Y333E (human) (UniProt Q14457); test: as above
[3] = biological target: BECN1 (endogenous, HEK293T cells) (human (endogenous in HEK293T)) (UniProt Q14457); test: condition: only cells treated with IL-6 (20 ng/ml) for 12 h; co-IP; IP of endogenous BECN1 in HEK293T cells treated with IL-6 (20 ng/ml) for 12 h; NP40 cell lysis buffer, western blot
[4] = biological target: BECN1 (endogenous, HEK293T cells) (human (endogenous in HEK293T)) (UniProt Q14457); test: co-IP; IP of endogenous BECN1 in HEK293T cells, in the absence or presence of IL-6 (20 ng/ml) for 12 h or of CHZ868 (0.2 μM) for 12 h; NP40 cell lysis buffer, western blot

- binding [1]: binds
- binding [2]: binds
- binding [3]: no binding
- binding [4]: binds
Substance: BCL-2 (from UniProt P10415 1-239)
